{"source": "PubChem BioAssay AID1671195 (Yale University, 2021)", "purpose": "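Genes whose knockdown alters LDL uptake in liver cancer cells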 (primary screen)", "cells": "human Huh7 hepatoma cells", "reagent": "siRNA pool against human genes, 18 nM", "duration": "about 2 to 2.5 days of knockdown, then 8 h LDL uptake", "challenge": "DiI-labelled LDL at 30 µg/ml for 8 h, in lipoprotein-deficient serum medium", "measurement": "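Per-cell DiI-LDL intensity by automated imaging; well means scaled to the plate median and given as a robust z-score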", "reading the numbers": "robust z-score: higher = more LDL uptake after knockdown", "call rule": "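Active when two or more replicates show a robust z-score above 2 or below -2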", "note": "Here is an unselected part of about 22,000 reagents tested. About 1,510 of all reagents (6.9%) count as active. 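Active includes knockdowns raising or lowering LDL uptake; positive z-scores mean more uptake, negative mean less.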 Reagent sequences are not shown."}
The first 2 records, ahead of the listing:
{"gene symbol": "CERT1 (ceramide transporter 1)", "robust z-score, replicate 1": 0.485, "robust z-score, replicate 2": 0.0732, "robust z-score, replicate 3": 0.477, "Call": "inactive"}
{"gene symbol": "P3H2 (prolyl 3-hydroxylase 2)", "robust z-score, replicate 1": 3.05, "robust z-score, replicate 2": 2.98, "robust z-score, replicate 3": 2.9, "Call": "active"}

The listing, from the start:
{"gene symbol": "CERT1 (ceramide transporter 1)", "robust z-score, replicate 1": 0.485, "robust z-score, replicate 2": 0.0732, "robust z-score, replicate 3": 0.477, "Call": "inactive"}
{"gene symbol": "P3H2 (prolyl 3-hydroxylase 2)", "robust z-score, replicate 1": 3.05, "robust z-score, replicate 2": 2.98, "robust z-score, replicate 3": 2.9, "Call": "active"}
{"gene symbol": "TRIM64FP (tripartite motif containing 64F, pseudogene)", "robust z-score, replicate 1": -0.583, "robust z-score, replicate 2": -1.11, "robust z-score, replicate 3": -0.954, "Call": "inactive"}
{"gene symbol": "FMNL3 (formin like 3)", "robust z-score, replicate 1": 0.486, "robust z-score, replicate 2": 0.172, "robust z-score, replicate 3": 1.4, "Call": "inactive"}
{"gene symbol": "HORMAD1 (HORMA domain containing 1)", "robust z-score, replicate 1": 1.46, "robust z-score, replicate 2": 1.95, "robust z-score, replicate 3": 2.22, "Call": "inactive"}
{"gene symbol": "SEPHS2 (selenophosphate synthetase 2)", "robust z-score, replicate 1": 1.72, "robust z-score, replicate 2": 1.37, "robust z-score, replicate 3": 2.19, "Call": "inactive"}
{"gene symbol": "HELT (helt bHLH transcription factor)", "robust z-score, replicate 1": 1.6, "robust z-score, replicate 2": 1.09, "robust z-score, replicate 3": 1.42, "Call": "inactive"}
{"gene symbol": "ZBTB9 (zinc finger and BTB domain containing 9)", "robust z-score, replicate 1": 1.33, "robust z-score, replicate 2": 1.96, "robust z-score, replicate 3": 1.82, "Call": "inactive"}
{"gene symbol": "ZNF536 (zinc finger protein 536)", "robust z-score, replicate 1": -0.436, "robust z-score, replicate 2": -0.363, "robust z-score, replicate 3": -0.562, "Call": "inactive"}
{"gene symbol": "FLCN (folliculin)", "robust z-score, replicate 1": -1.58, "robust z-score, replicate 2": -1.57, "robust z-score, replicate 3": -0.842, "Call": "inactive"}
{"gene symbol": "CLECL1 (C-type lectin like 1)", "robust z-score, replicate 1": -0.651, "robust z-score, replicate 2": -0.335, "robust z-score, replicate 3": -0.722, "Call": "inactive"}
{"gene symbol": "CPAMD8 (C3 and PZP like alpha-2-macroglobulin domain containing 8)", "robust z-score, replicate 1": -0.116, "robust z-score, replicate 2": -0.242, "robust z-score, replicate 3": 0.295, "Call": "inactive"}
